Reference: PubChem BioAssay AID1053208 (Peter MacCallum Cancer Centre, 2014)

Purpose: 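Find knock-downs that sensitise mouse osteosarcoma cells to doxorubicin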 (primary screen)
Cell system: mouse osteosarcoma cells, early-passage culture from an engineered mouse model of fibroblastic bone tumour
Knock-down reagent: siRNA pool against mouse genes, 40 nM
Duration: about 120 h (48 h before drug, then 72 h with drug)
Treatment: doxorubicin 100 nM for 72 h, roughly 30-40% inhibitory dose
Measurement: 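Viability read as ATP luminescence after 72 h of 100 nM doxorubicin or none, duplicate wells averaged, scaled to non-targeting siRNA, then expressed as robust z-scores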
Scale: viability z-score with doxorubicin: higher = more viable cells under doxorubicin; viability z-score without drug: higher = more viable cells with knock-down alone
Active means: 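Called active if knock-down leaves viability unchanged without drug (z within -2 to 2) but lowers it with doxorubicin (z at or under -2)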
Here is one part, drawn at random, of about 17,000 reagents. Of all reagents, 788 (4.7%) are marked active. 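Calls rest on z-score classes alone; an extra cut-off of viability at most 70% of control was not applied to them.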 Entries without a mark were called inactive. Not all columns of the deposit are shown.

Dcp1a (GeneID 75901) — combined z-score class = no change with or without drug; viability z-score with doxorubicin = 0.22; viability z-score without drug = 0
Pramel52-ps (GeneID 100554) — combined z-score class = no change with or without drug; viability z-score with doxorubicin = 0.45; viability z-score without drug = 0.17
Arhgdig (GeneID 14570) — combined z-score class = low cell count with doxorubicin only (active); viability z-score with doxorubicin = -2.25; viability z-score without drug = -0.84
Saa4 (GeneID 20211) — combined z-score class = no change with or without drug; viability z-score with doxorubicin = -1.35; viability z-score without drug = -0.84
Kalrn (GeneID 545156) — combined z-score class = no change with or without drug; viability z-score with doxorubicin = 0.56; viability z-score without drug = 0.84
Myo5a (GeneID 17918) — combined z-score class = no change with or without drug; viability z-score with doxorubicin = 0.67; viability z-score without drug = -0.17
Chrna2 (GeneID 110902) — combined z-score class = no change with or without drug; viability z-score with doxorubicin = 0; viability z-score without drug = 0.34
Vmn1r220 (GeneID 171271) — combined z-score class = high cell count with and without drug; viability z-score with doxorubicin = 3.93; viability z-score without drug = 2.87
Lratd2 (GeneID 399603) — combined z-score class = no change with or without drug; viability z-score with doxorubicin = 0.67; viability z-score without drug = 1.69
Sbsn (GeneID 282619) — combined z-score class = no change with or without drug; viability z-score with doxorubicin = -1.46; viability z-score without drug = -0.51
Snx8 (GeneID 231834) — combined z-score class = no change with or without drug; viability z-score with doxorubicin = -0.67; viability z-score without drug = -1.18
Adam18 (GeneID 13524) — combined z-score class = no change with or without drug; viability z-score with doxorubicin = 0.45; viability z-score without drug = 0.84
Ankrd6 (GeneID 140577) — combined z-score class = no change with or without drug; viability z-score with doxorubicin = -0.45; viability z-score without drug = 1.01
Dnm1l (GeneID 74006) — combined z-score class = no change with or without drug; viability z-score with doxorubicin = 0.11; viability z-score without drug = -0.17
Papola (GeneID 18789) — combined z-score class = no change with or without drug; viability z-score with doxorubicin = 0.34; viability z-score without drug = 1.01
Mrgprh (GeneID 80978) — combined z-score class = no change with or without drug; viability z-score with doxorubicin = -1.24; viability z-score without drug = -1.18
Acyp2 (GeneID 75572) — combined z-score class = no change with or without drug; viability z-score with doxorubicin = 0.45; viability z-score without drug = 0.84
Grid2ip (GeneID 170935) — combined z-score class = no change with or without drug; viability z-score with doxorubicin = 0; viability z-score without drug = -0.51
Trim52 (GeneID 212085) — combined z-score class = no change with or without drug; viability z-score with doxorubicin = -1.69; viability z-score without drug = -1.35

Hits, among the entries above:
Arhgdig (GeneID 14570) — combined z-score class = low cell count with doxorubicin only (active); viability z-score with doxorubicin = -2.25; viability z-score without drug = -0.84
